According to PMC6258673:
No constants are given. Whether binding was seen depends on the method and setting. In cells and extracts the contact can be indirect. Here binding means that the protein was enriched with, or labelled near, the bait; the list need not be complete. One block for each molecule: values may come before it.

Protein sequences, listed by entry. Tags and fused reporters are not part of them.
UniProt Q13263: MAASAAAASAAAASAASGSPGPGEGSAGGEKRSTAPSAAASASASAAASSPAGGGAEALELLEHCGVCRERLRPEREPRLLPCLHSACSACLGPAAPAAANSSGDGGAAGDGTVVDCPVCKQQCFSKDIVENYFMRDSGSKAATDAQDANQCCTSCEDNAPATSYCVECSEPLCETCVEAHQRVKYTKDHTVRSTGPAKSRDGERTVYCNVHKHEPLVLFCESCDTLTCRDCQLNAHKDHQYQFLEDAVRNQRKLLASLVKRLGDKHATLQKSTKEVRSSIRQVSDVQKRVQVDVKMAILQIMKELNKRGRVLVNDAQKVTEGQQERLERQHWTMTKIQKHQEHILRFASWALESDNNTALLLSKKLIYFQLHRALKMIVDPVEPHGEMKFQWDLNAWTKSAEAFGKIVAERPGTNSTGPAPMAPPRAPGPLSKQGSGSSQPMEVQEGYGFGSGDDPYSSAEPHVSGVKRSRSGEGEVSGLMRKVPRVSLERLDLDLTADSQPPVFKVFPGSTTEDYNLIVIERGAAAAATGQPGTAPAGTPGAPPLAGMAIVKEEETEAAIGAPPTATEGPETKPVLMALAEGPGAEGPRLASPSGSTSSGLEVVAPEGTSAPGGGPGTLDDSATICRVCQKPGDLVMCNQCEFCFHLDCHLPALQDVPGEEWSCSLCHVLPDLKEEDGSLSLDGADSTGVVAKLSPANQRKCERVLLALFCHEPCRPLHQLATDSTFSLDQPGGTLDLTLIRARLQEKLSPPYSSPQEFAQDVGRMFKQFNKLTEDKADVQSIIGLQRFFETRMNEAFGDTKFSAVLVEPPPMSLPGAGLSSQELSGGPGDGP

Experiments:
[1] = target: T1, TRIM24-SFB (stably expressed in LNCaP cells) (UniProt O15164); assay: affinity purification with mass spectrometry; tandem affinity purification of TRIM24-SFB from stably expressing LNCaP cells: NETN buffer (100 mM NaCl, 20 mM Tris-Cl pH 8.0, 1 mM EDTA, 0.5% NP-40), streptavidin beads 4 h 4 °C, biotin elution, S-protein beads overnight 4 °C, SDS-PAGE bands to mass spectrometry
T1 sequence: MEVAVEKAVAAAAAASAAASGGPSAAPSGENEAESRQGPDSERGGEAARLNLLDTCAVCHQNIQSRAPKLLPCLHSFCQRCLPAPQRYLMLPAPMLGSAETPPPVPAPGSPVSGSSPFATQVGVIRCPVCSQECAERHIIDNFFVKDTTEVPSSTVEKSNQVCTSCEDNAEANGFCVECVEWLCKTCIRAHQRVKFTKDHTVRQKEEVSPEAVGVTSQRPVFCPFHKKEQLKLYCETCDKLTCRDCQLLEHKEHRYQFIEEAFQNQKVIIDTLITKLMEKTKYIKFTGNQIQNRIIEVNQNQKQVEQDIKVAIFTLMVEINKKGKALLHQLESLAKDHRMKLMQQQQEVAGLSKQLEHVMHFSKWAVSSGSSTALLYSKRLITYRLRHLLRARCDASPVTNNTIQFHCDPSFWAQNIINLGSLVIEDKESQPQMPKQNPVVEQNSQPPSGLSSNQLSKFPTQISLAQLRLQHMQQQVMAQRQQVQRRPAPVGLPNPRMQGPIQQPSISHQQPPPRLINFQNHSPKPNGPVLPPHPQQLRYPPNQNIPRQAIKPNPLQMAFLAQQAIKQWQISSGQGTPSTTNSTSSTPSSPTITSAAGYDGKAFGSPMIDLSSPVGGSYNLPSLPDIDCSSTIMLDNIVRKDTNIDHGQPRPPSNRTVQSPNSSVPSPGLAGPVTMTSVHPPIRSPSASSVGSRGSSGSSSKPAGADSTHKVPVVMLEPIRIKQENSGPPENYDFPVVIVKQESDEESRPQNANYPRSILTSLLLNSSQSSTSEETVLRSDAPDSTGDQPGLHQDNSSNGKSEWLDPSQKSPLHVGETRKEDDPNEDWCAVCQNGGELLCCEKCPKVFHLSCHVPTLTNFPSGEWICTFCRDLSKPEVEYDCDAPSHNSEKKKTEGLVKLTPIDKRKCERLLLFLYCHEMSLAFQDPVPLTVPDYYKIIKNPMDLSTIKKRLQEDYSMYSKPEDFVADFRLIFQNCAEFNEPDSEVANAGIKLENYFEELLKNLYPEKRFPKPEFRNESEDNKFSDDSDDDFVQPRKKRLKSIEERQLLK

[2] = target: T2, TRIM24-SFB (stably expressed in LNCaP cells), O15164; assay: as above; details: remark: other sources report otherwise
T2 chain: T1 sequence

binding [1]: binds
Molecule: endogenous TRIM28 (LNCaP cells) (from UniProt Q13263 1-835)

binding [2]: binds
B1: TRIM33, Q9UPN9 1-1127 (protein)
chain: MAENKGGGEAESGGGGSGSAPVTAGAAGPAAQEAEPPLTAVLVEEEEEEGGRAGAEGGAAGPDDGGVAAASSGSAQAASSPAASVGTGVAGGAVSTPAPAPASAPAPGPSAGPPPGPPASLLDTCAVCQQSLQSRREAEPKLLPCLHSFCLRCLPEPERQLSVPIPGGSNGDIQQVGVIRCPVCRQECRQIDLVDNYFVKDTSEAPSSSDEKSEQVCTSCEDNASAVGFCVECGEWLCKTCIEAHQRVKFTKDHLIRKKEDVSESVGASGQRPVFCPVHKQEQLKLFCETCDRLTCRDCQLLEHKEHRYQFLEEAFQNQKGAIENLLAKLLEKKNYVHFAATQVQNRIKEVNETNKRVEQEIKVAIFTLINEINKKGKSLLQQLENVTKERQMKLLQQQNDITGLSRQVKHVMNFTNWAIASGSSTALLYSKRLITFQLRHILKARCDPVPAANGAIRFHCDPTFWAKNVVNLGNLVIESKPAPGYTPNVVVGQVPPGTNHISKTPGQINLAQLRLQHMQQQVYAQKHQQLQQMRMQQPPAPVPTTTTTTQQHPRQAAPQMLQQQPPRLISVQTMQRGNMNCGAFQAHQMRLAQNAARIPGIPRHSGPQYSMMQPHLQRQHSNPGHAGPFPVVSVHNTTINPTSPTTATMANANRGPTSPSVTAIELIPSVTNPENLPSLPDIPPIQLEDAGSSSLDNLLSRYISGSHLPPQPTSTMNPSPGPSALSPGSSGLSNSHTPVRPPSTSSTGSRGSCGSSGRTAEKTSLSFKSDQVKVKQEPGTEDEICSFSGGVKQEKTEDGRRSACMLSSPESSLTPPLSTNLHLESELDALASLENHVKIEPADMNESCKQSGLSSLVNGKSPIRSLMHRSARIGGDGNNKDDDPNEDWCAVCQNGGDLLCCEKCPKVFHLTCHVPTLLSFPSGDWICTFCRDIGKPEVEYDCDNLQHSKKGKTAQGLSPVDQRKCERLLLYLYCHELSIEFQEPVPASIPNYYKIIKKPMDLSTVKKKLQKKHSQHYQIPDDFVADVRLIFKNCERFNEMMKVVQVYADTQEINLKADSEVAQAGKAVALYFEDKLTEIYSDRTFAPLPEFEQEEDDGEVTEDSDEDFIQPRRKRLKSDERPVHIK
